Test results taken from PubChem BioAssay AID2685 (National Center for Advancing Translational Sciences (NCATS), 2010).
The whole screen tested about 320,000 compounds, of which about 2,100 (0.66%) were called active. Calls come from the whole dose curve; as a rule, active = well fitted inhibition curve with a large enough effect in the signal ratio, with a control signal flat (not every such curve was filed as active); inconclusive = small, poorly fitted or top-dose-only effect, or effect the other way, or a change in a side signal; inactive = flat fitted curve, though single readings scatter; the % refers to the signal ratio. Inconclusive results, whose numbers are uncertain, are shown. Where the call is inconclusive, the potency comes from a doubtful curve fit.

Assay: qHTS Assay for Lipid Storage Modulators in Drosophila S3 Cells
Conditions: BODIPY lipid droplet fluorescence, 18-24 h, cells fed with added oleic acid; lipid storage change, negative = inhibition: at 46.1 µM (top of the series) unless noted
Procedure, shortened: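 Laser-scanning cytometry quantifies lipid droplet accumulation (500–530 nm total intensity; droplet/cell object ratio) in oleic acid-fed (400 uM added) Drosophila S3 cells treated with a concentration series. 20 uM Triacsin C defined 100% inhibition.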
% is set by controls: 0 for no effect and ±100 for the full control effect; potency is the fitted concentration of half-maximal effect.

Potency, inconclusive:
Cc1c(NC(=O)c2ccccc2N)cccc1C(=O)O 29.1 µM [falling, single point]
COc1ccc(NC(=O)COC(=O)CO/N=C(\C)c2ccc3c(c2)OCO3)cc1S(N)(=O)=O 14.6 µM [activator, partial curve, poor fit]
Cc1cccc(C(=O)NC(=S)Nc2ccc(S(=O)(=O)N3CCCCC3)cc2)c1 7.31 µM [activator, partial curve]
Cc1cc(C)cc(N(C(=O)CNS(=O)(=O)c2ccccc2)C(C(=O)NCc2ccccc2)c2ccc(C)o2)c1 (stereo not drawn) 29.1 µM [falling, single point]
COc1cccc(C(C[N+](=O)[O-])c2c(C)[nH]n(-c3ccccc3)c2=O)c1 (stereo not drawn) 1.3 µM [falling, full curve]

Lipid storage change, negative = inhibition, inconclusive:
CC(CNC(=O)CN1C(=O)CCSc2ccccc21)c1ccccc1 (stereo not drawn) 8.04%
C=CCOc1ccccc1/C=N/O 13.1%
C=CCn1c(SCc2ccc(C(=O)Nc3ccccc3)cc2)nnc1-c1ccccc1 -31%
CC(C)(C)OC(=O)N[C@H](/C=C/c1ccccc1)C(=O)OC(C)(C)C -5.27%
CCCCN=C(NNc1ccc(Br)cc1)C(=O)OCC -29.8%
O=C(Nc1cc(S(=O)(=O)N2CCOCC2)ccc1N1CCOCC1)c1cc2c(s1)CCC2 -17.3%
COc1ccc(COC(=O)C2CCN(S(=O)(=O)c3ccc(Cl)cc3)CC2)cc1
Cn1c(=O)c(C(=O)NC2CCCCCCC2)c(O)c2ccccc21 28.2%
O=C(c1ccc(Cl)cc1)c1ccc(OCC(O)CN2CCOCC2)cc1 (stereo not drawn) 43.9%
Cc1ccc(-c2nc(CS(=O)(=O)CC(=O)N3CC(C)CC(C)C3)c(C)o2)cc1 (stereo not drawn) 50.7%
O=C(COC(=O)CCc1c[nH]c2ccccc12)NCc1ccccc1 -26.7%
CC(C)CCN1CC(C(=O)NCc2ccccc2)CC1=O (stereo not drawn) -6.62%
COc1ccc(C2=NS(=O)(=O)N(C)C(C(=O)NC3CCCCC3)=C2)cc1 -33.2%
Cc1cc(NC(=O)NC(=O)c2ccccc2)no1 16.8%
CC(=O)c1c(C)nc2ccccn12 20.5%
Cc1ccc(S(=O)(=O)N2CCN(S(=O)(=O)N(C)C)CC2)cc1 -7.29%
CN(Cc1nc(-c2ccc3c(c2)OCO3)no1)CC1(N2CCOCC2)CCCCC1 35.1%
O=C(NNC(=O)c1cncc(Br)c1)c1ccncc1 0.281%

3 entries out of the list, arranged by molar mass, low to high:
Lipid storage change, negative = inhibition, inconclusive:
CC(C)(C)OC(=O)N[C@H](/C=C/c1ccccc1)C(=O)OC(C)(C)C -5.27%
Cc1ccc(S(=O)(=O)N2CCN(S(=O)(=O)N(C)C)CC2)cc1 -7.29%
COc1ccc(C2=NS(=O)(=O)N(C)C(C(=O)NC3CCCCC3)=C2)cc1 -33.2%
